The values that follow come from PMC5342555, “ATAD2 is an epigenetic reader of newly synthesized histone marks during DNA replication” (Oncotarget, 2016).

The chains behind the UniProt entries cited, without tags or fusion partners.
UniProt P45973: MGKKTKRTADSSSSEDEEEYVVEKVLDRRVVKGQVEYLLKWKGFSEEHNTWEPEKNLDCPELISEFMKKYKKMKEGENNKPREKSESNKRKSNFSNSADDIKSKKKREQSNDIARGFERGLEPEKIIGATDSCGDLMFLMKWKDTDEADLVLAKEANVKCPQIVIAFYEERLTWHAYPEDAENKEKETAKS

These are yes or no findings as the source states them, for the method shown. In cells and extracts the contact can be indirect. Some binding calls cover weakened binding; strength is not graded here. Tags and fused reporters may be left off the sequences shown.

For the assay, the target named is Heterochromatin Protein (HP) 1α, endogenous (human (endogenous in MCF7)) (UniProt P45973). The experiment in a line: co-IP; HP1α associated complex isolated from nuclear extract of MCF7 cells expressing tagGFP-ATAD2 WT with 2 μg HP1α antibodies on Protein G beads; Western blot. For orientation: Immunoblotting shows a protein as a band on a membrane.

B1: tagGFP-tagged WT ATAD2 (protein, UniProt Q6PL18 1-1390)
chain: MVVLRSSLELHNHSAASATGSLDLSSDFLSLEHIGRRRLRSAGAAQKKPAATTAKAGDGSSVKEVETYHRTRALRSLRKDAQNSSDSSFEKNVEITEQLANGRHFTRQLARQQADKKKEEHREDKVIPVTRSLRARNIVQSTEHLHEDNGDVEVRRSCRIRSRYSGVNQSMLFDKLITNTAEAVLQKMDDMKKMRRQRMRELEDLGVFNETEESNLNMYTRGKQKDIQRTDEETTDNQEGSVESSEEGEDQEHEDDGEDEDDEDDDDDDDDDDDDDDEDDEDEEDGEEENQKRYYLRQRKATVYYQAPLEKPRHQRKPNIFYSGPASPARPRYRLSSAGPRSPYCKRMNRRRHAIHSSDSTSSSSSEDEQHFERRRKRSRNRAINRCLPLNFRKDELKGIYKDRMKIGASLADVDPMQLDSSVRFDSVGGLSNHIAALKEMVVFPLLYPEVFEKFKIQPPRGCLFYGPPGTGKTLVARALANECSQGDKRVAFFMRKGADCLSKWVGESERQLRLLFDQAYQMRPSIIFFDEIDGLAPVRSSRQDQIHSSIVSTLLALMDGLDSRGEIVVIGATNRLDSIDPALRRPGRFDREFLFSLPDKEARKEILKIHTRDWNPKPLDTFLEELAENCVGYCGADIKSICAEAALCALRRRYPQIYTTSEKLQLDLSSINISAKDFEVAMQKMIPASQRAVTSPGQALSTVVKPLLQNTVDKILEALQRVFPHAEFRTNKTLDSDISCPLLESDLAYSDDDVPSVYENGLSQKSSHKAKDNFNFLHLNRNACYQPMSFRPRILIVGEPGFGQGSHLAPAVIHALEKFTVYTLDIPVLFGVSTTSPEETCAQVIREAKRTAPSIVYVPHIHVWWEIVGPTLKATFTTLLQNIPSFAPVLLLATSDKPHSALPEEVQELFIRDYGEIFNVQLPDKEERTKFFEDLILKQAAKPPISKKKAVLQALEVLPVAPPPEPRSLTAEEVKRLEEQEEDTFRELRIFLRNVTHRLAIDKRFRVFTKPVDPDEVPDYVTVIKQPMDLSSVISKIDLHKYLTVKDYLRDIDLICSNALEYNPDRDPGDRLIRHRACALRDTAYAIIKEELDEDFEQLCEEIQESRKKRGCSSSKYAPSYYHVMPKQNSTLVGDKRSDPEQNEKLKTPSTPVACSTPAQLKRKIRKKSNWYLGTIKKRRKISQAKDDSQNAIDHKIESDTEETQDTSVDHNETGNTGESSVEENEKQQNASESKLELRNNSNTCNIENELEDSRKTTACTELRDKIACNGDASSSQIIHISDENEGKEMCVLRMTRARRSQVEQQQLITVEKALAILSQPTPSLVVDHERLKNLLKTVVKKSQNYNIFQLENLYAVISQCIYRHRKDHDKTSLIQKMEQEVENFSCSR
On to B1, for which the binding entry is on record as “binds”.
